These are yes or no findings as the source states them, for the method shown. In cells and extracts the contact can be indirect. Some entries that bind do so weakly or less than the wild type. Tags and fused reporters may be left off the sequences shown.
Target: T1, Peanut agglutinin (PNA), agarose-conjugated (Arachis hypogaea) (UniProt P02872)
T1 sequence: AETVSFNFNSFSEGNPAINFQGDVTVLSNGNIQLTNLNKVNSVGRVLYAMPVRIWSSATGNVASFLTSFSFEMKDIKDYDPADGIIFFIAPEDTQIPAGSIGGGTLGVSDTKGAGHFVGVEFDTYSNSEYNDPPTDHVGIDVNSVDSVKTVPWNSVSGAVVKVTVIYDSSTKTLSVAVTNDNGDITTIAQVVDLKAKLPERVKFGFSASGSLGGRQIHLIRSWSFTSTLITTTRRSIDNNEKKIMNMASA
Assay: pull-down; HUVEC lysate (1% Triton X-100 in PBS) with PNA-agarose beads at 4°C overnight; beads then incubated with PBS, 5U PNGase-F or 10mM O-glycanase at 37°C overnight, washed, bound proteins analysed by MCAM immunoblot; only the target purified

Amino acid sequences for entries named in this document (tags omitted). Residues count along the entry.
UniProt P43121, residues 24-646: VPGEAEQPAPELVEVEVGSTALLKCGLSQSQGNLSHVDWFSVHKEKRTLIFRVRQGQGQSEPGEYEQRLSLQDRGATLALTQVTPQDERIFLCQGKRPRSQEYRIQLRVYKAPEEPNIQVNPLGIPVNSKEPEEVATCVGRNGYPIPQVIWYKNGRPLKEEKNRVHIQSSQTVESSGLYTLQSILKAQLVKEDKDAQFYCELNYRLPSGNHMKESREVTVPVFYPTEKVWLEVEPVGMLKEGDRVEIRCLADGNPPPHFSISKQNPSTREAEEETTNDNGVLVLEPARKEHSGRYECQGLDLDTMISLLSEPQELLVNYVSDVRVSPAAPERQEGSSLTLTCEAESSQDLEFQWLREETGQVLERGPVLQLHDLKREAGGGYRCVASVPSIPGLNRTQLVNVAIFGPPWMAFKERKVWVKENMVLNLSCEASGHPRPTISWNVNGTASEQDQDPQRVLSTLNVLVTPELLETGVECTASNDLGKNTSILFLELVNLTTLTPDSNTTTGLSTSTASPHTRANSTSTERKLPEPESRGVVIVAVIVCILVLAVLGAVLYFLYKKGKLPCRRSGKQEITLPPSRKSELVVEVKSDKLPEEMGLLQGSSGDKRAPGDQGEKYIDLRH

Row | binding | Substance
1 | binds | MCAM (CD146) treated with O-glycanase (from UniProt P43121 24-646) (receptor)
2 | binds | MCAM (CD146), melanoma cell adhesion molecule (from UniProt P43121 24-646) (receptor)
